The results in this text go back to paper PMC2390571.

The target in series [1] is NKX3.1 (in LNCaP nuclear extract) (Homo sapiens) (UniProt Q99801). Nature of the series: EMSA, self-competition and antibody blocking. The conditions noted are these: 250-fold unlabelled NBS3 and anti-NKX3.1 antibody block the complex; 20 mM HEPES pH 7.6, 30 mM KCl, 1 mM EDTA, 1 mM DTT, 0.2% Tween-20, 1 ug poly(dI-dC), 0.1 ug poly(L-Lys), 20 ug nuclear extract, 0.8 ng DIG probe, 20 ul, 20 min; protein in an extract; label: DIG (probe), unlabelled as competitor. In general terms: Mobility shift assays separate free from complexed probe on a gel.

Series [2] shares this target. Nature of the series: EMSA. The conditions noted are these: 20 mM HEPES pH 7.6, 30 mM KCl, 1 mM EDTA, 1 mM DTT, 0.2% Tween-20, 1 ug poly(dI-dC), 0.1 ug poly(L-Lys), 20 ug nuclear extract, 0.8 ng DIG probe, 20 ul, 20 min; protein in an extract; label: DIG.

The exact form of at least one protein or probe is not confirmed. Where cells or extracts were used, other partners may take part. For some of these results: A negative result means that nothing was seen under these conditions. For some of these results: At least one verdict was read from the data and is not stated in words by the source.

As for AAATAAGTAGCCT (double strand) [NBS3], in series [1], the binding result is reported as “binds”.
On to AGGTAAGTAAAG (double strand) [NBS2], for which the binding result in series [2] is “no binding”.
As for CAATAAGTTTTAT (double strand) [NBS4], the binding result in series [2] is recorded as “no binding”.
Take TGTTAAGTATCCT (double strand) [NBS5]: the binding result in series [2] is listed as “no binding”.
